Values from PubChem BioAssay AID1259327 (Drosophila RNAi Screening Center, 2017)
Aim: 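Knock-downs altering cellular ATP with no metal added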. Cells: Drosophila S2R+ cells. Reagent: long dsRNA against Drosophila genes. Duration: 5 days (water added on day 4, read one day later). Treatment: water added as vehicle, no metal, one day before read-out. Detection: 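Total ATP measured by luciferase light, scaled to plate mean, duplicates averaged, then z-scored across plates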. Scale: ATP z-score: higher = more total ATP than typical wells; ATP luminescence: higher = more total ATP. Call rule: 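a hit is any knock-down whose absolute ATP z-score is greater than 1.5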. Meaning of the calls: active = hit: ATP up or down; inactive = no clear ATP change.
In all, the deposit lists about 3,100 reagents; below is an unselected part. In the full data, 378 (12%) got an active call. 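Hits include both directions; z-score sign shows ATP rise or fall; raw luminescence values are not plate-normalised.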 Unmarked entries are inactive. Names joined by + are all predicted targets of the reagent. Not given: the amount of reagent.

gene	dsRNA	ATP z-score, duplicate mean	ATP luminescence, replicate 1 (RLU)	ATP luminescence, replicate 2 (RLU)
sNPF-R (short neuropeptide F receptor)	DRSC10836	0.531	9.87e5	9.44e5
CG11099	DRSC06034	1.85 (active)	7.75e5	8.00e5
rtet (tetracycline resistance)	DRSC14160	0.116	7.23e5	7.12e5
rtet (tetracycline resistance)	DRSC39843	1.51 (active)	5.36e5	6.36e5
CG9643	DRSC00722	-0.247	6.50e5	7.10e5
CG9643	DRSC27948	-0.596	8.92e5	1.01e6
CG1213	DRSC12191	0.535	9.88e5	9.44e5
CHOp24	DRSC18310	-0.345	6.87e5	6.53e5
CHOp24	DRSC39433	-1.52 (active)	3.65e5	3.40e5
Nemp (Nuclear envelope integral membrane protein)	DRSC20206	-0.77	5.88e5	6.63e5
Nemp (Nuclear envelope integral membrane protein)	DRSC26963	-0.179	8.91e5	1.14e6
T48 (Transcript 48)	DRSC16878	0.761	5.82e5	6.85e5
CG13223	DRSC06344	-0.484	6.44e5	5.07e5
CG13223	DRSC39714	0.472	4.34e5	5.63e5
CG13078	DRSC02182	1.15	8.74e5	8.24e5
CG8785	DRSC07266	0.0445	7.15e5	7.57e5
CG18609	DRSC06775	1.71 (active)	7.19e5	8.30e5
CG18609	DRSC27601	1.29	8.43e5	8.81e5
Tpc2	DRSC04322	0.718	8.28e5	7.77e5
CG5326	DRSC13568	-0.259	3.13e5	6.70e5
CG5326	DRSC23719	1.44	1.02e6	1.04e6
Ncc69 (sodium chloride cotransporter 69)	DRSC10412	-1.07	6.01e5	6.32e5
Ncc69 (sodium chloride cotransporter 69)	DRSC23572	0.46	9.14e5	8.45e5
JTBR	DRSC08667	-0.531	5.44e5	5.99e5
nompC (no mechanoreceptor potential C)	DRSC03581	0.214	7.66e5	7.32e5
nompC (no mechanoreceptor potential C)	DRSC39807	-0.551	4.69e5	4.09e5
CG34109	DRSC02225	-0.454	7.01e5	6.55e5
CG34109	DRSC26977	0.243	1.04e6	8.71e5
CG34109	DRSC30104	-1.02	5.19e5	4.67e5
CG17751	DRSC22837	0.31	5.44e5	6.69e5
CG17751	DRSC24497	-0.341	8.15e5	7.51e5
Or69a (Odorant receptor 69a)	DRSC11243	-0.392	8.49e5	8.40e5
Or69a (Odorant receptor 69a)	DRSC25967	0.0852	8.19e5	9.03e5
Gr36b (Gustatory receptor 36b)	DRSC21637	-0.731	4.52e5	5.84e5
Gr36b (Gustatory receptor 36b)	DRSC29818	-0.229	6.22e5	4.98e5
Calx (Na/Ca-exchange protein)	DRSC13457	-0.291	3.15e5	6.58e5
Calx (Na/Ca-exchange protein)	DRSC16599	-0.0915	3.26e5	6.72e5
Calx (Na/Ca-exchange protein)	DRSC21850	-1.35	4.54e5	4.76e5
Calx (Na/Ca-exchange protein)	DRSC24386	-0.0842	8.53e5	8.26e5
dmGlut (Dietary and metabolic glutamate transporter)	DRSC02835	-1.51 (active)	3.43e5	4.05e5
dmGlut (Dietary and metabolic glutamate transporter)	DRSC25891	-1.16	7.09e5	7.03e5
Tret1-2 (Trehalose transporter 1-2)	DRSC07117	0.0814	6.38e5	6.16e5
Tret1-2 (Trehalose transporter 1-2)	DRSC28985	-0.263	8.05e5	7.78e5
CG11537	DRSC08200	0.181	7.23e5	7.78e5
CG11537	DRSC39579	-0.341	4.15e5	4.70e5
CG42514 + CG43373	DRSC26599	0.102	8.92e5	1.01e6

Records above marked active:
gene	dsRNA	ATP z-score, duplicate mean	ATP luminescence, replicate 1 (RLU)	ATP luminescence, replicate 2 (RLU)
CG11099	DRSC06034	1.85 (active)	7.75e5	8.00e5
rtet (tetracycline resistance)	DRSC39843	1.51 (active)	5.36e5	6.36e5
CHOp24	DRSC39433	-1.52 (active)	3.65e5	3.40e5
CG18609	DRSC06775	1.71 (active)	7.19e5	8.30e5
dmGlut (Dietary and metabolic glutamate transporter)	DRSC02835	-1.51 (active)	3.43e5	4.05e5
